In PubChem BioAssay AID2685 (National Center for Advancing Translational Sciences (NCATS), 2010) one finds cell number change and AC50 data, which are given here for 37 molecules.

Some of the results follow. Shown are side measurements of this screen, not its main read-out; they come without a call. The list favours compounds with an active or inconclusive main result. The note in brackets gives the kind of curve behind each potency; many fits are weak.

This test in a line: qHTS Assay for Lipid Storage Modulators in Drosophila S3 Cells.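 For cell number change: cells counted by Cell Tracker Red CMTPX staining in the red channel.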 Particulars: BODIPY lipid droplet fluorescence, 18-24 h; for cell number change: measured here: cell count max response, cells fed with added oleic acid. The gist of the method: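 Drosophila S3 cells loaded with oleic acid (400 uM, as added) and compounds at several concentrations; lipid droplets imaged by 488-nm laser-scanning cytometry, 500–530 nm intensity and object ratio to cell channel. Percent activity normalized to 20 uM Triacsin C.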
(In qHTS, concentration-response curves come from the screen itself.)

[1] abbreviates: measured here: lipid fluorescence (Fed channel) AC50, cells fed with added oleic acid.
Where [2] appears, read: measured here: cell number channel AC50, cells fed with added oleic acid.

One may read the AC50 as the midpoint of the concentration-response curve, whichever way the signal moves.

Take `Cc1ccccc1NC(=O)c1cn(-c2ccccc2)nc1-c1ccccc1`: the cell number change was found to be 6.67%. The AC50 under setting [1] was 1.03 µM [rising, full curve, poor fit].

For `O=C(c1ccco1)N1CCN(C(=O)c2[nH]ncc2[N+](=O)[O-])CC1`, the cell number change was -4.15%. Moreover, under setting [1], the AC50 was 0.651 µM [rising, full curve, poor fit].

In the case of `O=C(COc1ccc(NC(=O)c2ccccc2[N+](=O)[O-])cc1)c1ccc(F)cc1`, the cell number change is 63.7%. Moreover, the AC50 under setting [2] was 1.46 µM [rising, single point].

In the case of `CCc1ccc(C(=O)CCC(=O)Nc2cccc(S(=O)(=O)N3CCCCC3)c2)cc1`, the cell number change worked out at 75.2%. Also, under setting [2], the half-maximal activity concentration (AC50) is 16.4 µM [rising, single point]. Further, under setting [1], the AC50 was 25.9 µM [rising, single point].

Turning to `Clc1ccc(C2=Nc3cc(Cl)ccc3OC2)cc1`, the cell number change is -0.288%.

Turning to `CC(NC(=O)CSc1nnc(-c2cccc(S(=O)(=O)N3CCCCC3)c2)o1)C12CC3CC(CC(C3)C1)C2` (centres undefined), the cell number change is -3.09%.

`Cc1cccc(COCC(CC(C)C)N2CCN(C(=O)c3ccc(C(C)(C)C)cc3)CCC2=O)c1` (centres undefined): the cell number change was -67.3%. Further, the AC50 under setting [2] is 2.59 µM [falling, full curve]. Also, under setting [1], the AC50 was 2.06 µM [falling, full curve].

In the case of `C/C(=N\NC(=O)c1nc2ccccn2c1C)c1cc2ccccc2o1`, the cell number change amounted to 20.8%. In addition, the half-maximal activity concentration (AC50) under setting [2] is 2.31 µM [rising, single point]. Besides, under setting [1], the half-maximal activity concentration (AC50) is 2.31 µM [rising, full curve].

With `COc1cc(/C=C/c2nc(N)nc(-c3ccccc3O)n2)cc(OC)c1OC`, the cell number change was -25.5%. Further, under setting [1], the concentration at half-maximal activity (AC50) is 18.4 µM [falling, single point].

As to `CCCC(=O)NCn1nnc(-c2ccc(Cl)cc2)n1`, the cell number change came to 16.9%. Under setting [1], the half-maximal activity concentration (AC50) is 0.00461 µM [rising, full curve, poor fit].

For `C=CCn1c(CC(C)(C)C)nc2ccccc21`, the cell number change is 2.49%. The concentration at half-maximal activity (AC50) under setting [2] was 0.731 µM [rising, single point].

Regarding `COc1ccc(-c2cn[nH]c2-c2ccc(OCc3ccccc3)cc2O)cc1`, the cell number change was -55.5%. The concentration at half-maximal activity (AC50) under setting [1] was 16.4 µM [falling, single point].

As to `Cc1ccc2oc(C(=O)N(Cc3ccc(N(C)C)cc3)CC3CCCO3)c(C)c2c1` (centres undefined), the cell number change is -68.3%. In addition, the AC50 under setting [2] was 8.2 µM [falling, single point]. Besides, the AC50 under setting [1] was 5.8 µM [rising, single point].

On to `CCN(CCCNC(=O)CC(C(=O)N1CCc2ccccc21)n1ccnc1)c1cccc(C)c1` (centres undefined), for which the cell number change was -36.2%. Moreover, the AC50 under setting [2] is 7.31 µM [falling, partial curve]. Further, the AC50 under setting [1] was 0.058 µM [falling, full curve].

Take `CCCCNC(=O)C1CCC(CNc2c(N3CCC(C)CC3)c(=O)c2=O)CC1` (centres undefined): the cell number change is -19.2%. For the same molecule, the AC50 under setting [1] is 7.31 µM [falling, partial curve].

Take `O=C1N/C(=C\c2ccc(O)cc2)C(O)=C1C=NCc1ccccc1`: the cell number change is -5.62%. Also, the concentration at half-maximal activity (AC50) under setting [1] was 23.1 µM [rising, single point].

Turning to `C/C(=N\NC(=O)Nc1ccccc1)c1ccc2ccccc2c1`, the cell number change was -10.4%. Besides, the AC50 under setting [1] is 1.16 µM [falling, single point].

With `O=C(Cc1n[nH]c(=O)[nH]c1=O)N/N=C/c1cccc(O)c1`, the cell number change is -25.3%. Moreover, the half-maximal activity concentration (AC50) under setting [2] was 0.00411 µM [falling, full curve, poor fit]. Moreover, the AC50 under setting [1] is 2.91 µM [falling, single point].

Consider `O=[N+]([O-])c1nn(-c2ccc3c(c2)OCCO3)n(O)c1=NCCC1=CCCCC1`, for which the cell number change is -3.52%. Besides, the AC50 under setting [1] was 16.4 µM [falling, single point].

With `CCC(C)NC(=O)[C@H]1N2C(=O)c3c(ccc(OC)c3OC)C2SC1(C)C` (some centres undefined), the cell number change amounted to 23.9%. For the same molecule, the AC50 under setting [1] was 6.51 µM [rising, single point].

In the case of `O=C(CCS(=O)(=O)c1ccc(Cl)cc1)Nc1nc(-c2ccncc2)cs1`, the cell number change is -24.2%. Further, under setting [1], the AC50 is 6.51 µM [rising, single point].

In the case of `Cc1cc(NC(=O)CN2C(=O)NC3(CCCCC3C)C2=O)no1` (centres undefined), the cell number change worked out at 0.314%.

As to `CC(C)(C)C1CCC(=NNc2ccc(S(N)(=O)=O)cc2[N+](=O)[O-])CC1` (centres undefined), the cell number change is -39.2%. The half-maximal activity concentration (AC50) under setting [2] is 20.6 µM [falling, single point]. The AC50 under setting [1] was 14.6 µM [falling, partial curve].

Regarding `Cc1cccc(NC(=O)C2CC(=O)n3ncnc3N2)c1` (centres undefined), the cell number change was -15%. Besides, the AC50 under setting [1] is 0.731 µM [falling, full curve, poor fit].

In the case of `Cn1cnnc1SCC(=O)NCc1cccc(C(F)(F)F)c1`, the cell number change turned out to be 63.3%. The AC50 under setting [2] is 8.2 µM [rising, partial curve].

Take `COc1cc(C2OC(=O)c3c2ccc(OC)c3OC)ccc1O` (centres undefined): the cell number change came to 11.5%. Besides, the AC50 under setting [1] was 5.8 µM [falling, full curve].

As to `O=C(CSc1nnc(COc2ccc(Cl)cc2)o1)N1CCCC1`, the concentration at half-maximal activity (AC50) under setting [1] is 29.1 µM [rising, single point].

With `Cc1ccc(NC(=O)CN(C)CC(=O)N(C)Cc2ccccc2)cc1`, the cell number change is -10.8%. For the same molecule, the AC50 under setting [1] was 18.4 µM [falling, single point].

For `CCCn1nnnc1SCC(=O)Nc1ccc(F)cc1`, the cell number change worked out at 0.715%. The concentration at half-maximal activity (AC50) under setting [1] is 23.1 µM [rising, single point].

For `CCc1cc(C(=O)NCC2CCCO2)sc1C` (centres undefined), the cell number change is 4.91%.

Take `CSc1ccc(CNC(=O)C2CCC(=O)N(Cc3cccc(F)c3)C2)cc1` (centres undefined): the cell number change is 12.7%. Moreover, the half-maximal activity concentration (AC50) under setting [2] was 1.64 µM [rising, partial curve]. In addition, the AC50 under setting [1] is 14.6 µM [falling, single point].

As to `COc1ccc(CCC(=O)Nc2nc3ccccc3[nH]2)cc1`, the AC50 under setting [1] was 6.51 µM [falling, single point].

`O=[N+]([O-])c1cccc(-c2csc(Nc3ccccc3)n2)c1`: the cell number change was -21.2%. Besides, the AC50 under setting [1] was 29.1 µM [falling, single point].

Regarding `O=C(NCCCN1CCCC1=O)C1CCCO1` (centres undefined), the cell number change was -10.6%. The AC50 under setting [2] was 0.164 µM [falling, full curve]. The AC50 under setting [1] was 0.13 µM [falling, full curve, poor fit].

Take `O=C(C1CCCN(c2ncnc3c2nc2n3CCCCC2)C1)N1CCCCC1` (centres undefined): the cell number change was 16%. Further, the AC50 under setting [2] was 6.51 µM [rising, single point]. Also, the AC50 under setting [1] was 6.51 µM [rising, single point].

As to `Cc1cc(C)cc(NC(=O)c2cccn2-c2ncc(C(F)(F)F)cc2Cl)c1`, the cell number change was 4.02%. In addition, the half-maximal activity concentration (AC50) under setting [1] is 20.6 µM [falling, single point].

Turning to `COc1ccc(C(=O)NCCS(=O)(=O)NCC2CCCO2)cc1` (centres undefined), the cell number change is -16.9%. In addition, under setting [2], the AC50 was 0.00461 µM [falling, full curve, poor fit]. Further, under setting [1], the concentration at half-maximal activity (AC50) is 0.164 µM [falling, full curve, poor fit].
